{"source": "paper PMC8310135", "about": "(Viruses, 2021)", "key": {"in vitro": {"test": "in vitro", "details": "human"}, "rLUJV/ZsG": {"test_system": "rLUJV/ZsG", "test": "microbe, parasite or virus in culture", "assay_type": "cell-based, Lujo virus"}}, "note": "Where two headings read alike, the source gives them in different places.", "data": [{"smiles": "CCCCc1oc2ccccc2c1C(=O)c1cc(I)c(OCCN(CC)CC)c(I)c1", "note": "[Amiodarone]", "values": [{"measurement": "viability at 0.05 µM", "setting": "in vitro", "value": 132, "unit": "%"}, {"measurement": "viability at 0.5 µM", "setting": "in vitro", "value": 145, "unit": "%"}, {"measurement": "viability at 5 µM", "setting": "in vitro", "value": 86, "unit": "%"}, {"measurement": "SI (selectivity index, CC50 divided by EC50)", "setting": "rLUJV/ZsG", "value": 2.8}, {"measurement": "EC50", "setting": "rLUJV/ZsG; Mammarenavirus lujoense, Huh-7, read-out: EC50 (concentration inhibiting ZsG expression by 50%)", "value": "4.9 ± 0.51", "unit": "µM"}, {"measurement": "EC50", "setting": "rLUJV/ZsG; read-out: EC50 (concentration inhibiting ZsG expression by 50%)", "value": "4.9 ± 0.513", "unit": "µM"}]}]}
